Columns and labels:
[1] = general procedure: Fmoc solid-phase peptide synthesis; 2-CTC resin; HBTU/DIPEA; conditions: whole synthesis, scale 0.1 mmol
[2] = general procedure: Fmoc solid-phase peptide synthesis; 2-chlorotrityl chloride (2-CTC) resin; HBTU/DIPEA; conditions: whole synthesis, 254 nm, scale of the general procedure 0.1 mmol

**Q.** Which results are given for “DOTA-Ahx-Axh-Glu-Trp-Pro-Arg-Pro-Gln-Ile-Pro-Pro-OH”?
**A.** isolated yield [1]: 19.2%; final HPLC purity [2]: 99%

Reference: paper PMC10113987 (EJNMMI Research, 2023)
